# Measurements from US5589335A, “Hybridization promotion reagents” (Amoco Corporation, priority 1994, dated 1996).
# Where a name gives a salt, the structure may show the parent alone. The name of at least one read-out is uncertain.
# Test: Reagent stability
# Format: physicochemical
# Settings: over 1 year; 525960 min
# Description: TMA.TFA was prepared by combining equimolar amounts of concentrated Trifluoroacetic acid (Sigma Chemical Co. or Pierce Chemical Co.) and TMA.OH (Sigma Chemical Co. or Southwestern Analytical Chemicals, Inc.) and buffering it with 0.1M phosphate, 0.1M borate, 0.05 mM EDTA (phosphoric acid, boric acid, and EDTA (free acid), neutralized with TMA.OH). Buffered TMA.TFA remained at a constant pH for at least 1 year and its refractive index indicated a loss of only 2-3% of the solutes over the same period.
# TMA.TCA is ideally prepared by neutralizing highly concentrated TCA (~9.3M, or ~1.5 g/ml) with TMA.OH. […] This is ideally avoided since the efficiency of hybridization falls as the pH becomes less neutral. […] From the mass, volume and concentration of starting materials, and the volume of the final solution, the nominal concentration of the final product was calculated to be about 3M.
structure (smiles),measurement,value
"C[N+](C)(C)C [TMA.TFA, Tetramethyammonium:Trifluoroacetate]",loss of solutes (refractive index),2-3%
